Consider two compounds from ChEMBL document CHEMBL5674883, “The Heterochromatin Landscape in Migrating Cells and the Importance of H3K27me3 for Associated Transcriptome Alterations” (Cells, 2018).

Amino acid sequences for entries named in this document (tags omitted).
UniProt Q61188, whole entry: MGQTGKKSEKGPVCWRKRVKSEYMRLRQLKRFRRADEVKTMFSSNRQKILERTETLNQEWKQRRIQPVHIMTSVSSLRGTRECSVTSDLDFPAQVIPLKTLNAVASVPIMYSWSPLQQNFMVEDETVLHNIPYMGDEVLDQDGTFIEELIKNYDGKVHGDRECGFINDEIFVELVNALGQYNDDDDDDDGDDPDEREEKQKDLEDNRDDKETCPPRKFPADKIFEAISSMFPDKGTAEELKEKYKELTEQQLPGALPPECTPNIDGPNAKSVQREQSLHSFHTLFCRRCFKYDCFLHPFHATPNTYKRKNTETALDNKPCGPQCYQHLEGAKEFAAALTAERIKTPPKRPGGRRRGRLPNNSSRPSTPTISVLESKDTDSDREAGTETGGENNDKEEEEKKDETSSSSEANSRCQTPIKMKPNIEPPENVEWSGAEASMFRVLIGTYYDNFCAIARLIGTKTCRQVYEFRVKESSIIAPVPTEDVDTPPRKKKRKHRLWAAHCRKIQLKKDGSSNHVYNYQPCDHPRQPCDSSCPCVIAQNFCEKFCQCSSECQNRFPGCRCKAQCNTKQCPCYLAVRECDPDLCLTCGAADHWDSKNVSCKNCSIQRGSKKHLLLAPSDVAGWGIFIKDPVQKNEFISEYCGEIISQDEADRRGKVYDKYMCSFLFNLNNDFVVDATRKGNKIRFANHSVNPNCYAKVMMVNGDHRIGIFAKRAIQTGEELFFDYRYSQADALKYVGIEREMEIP

Type in all cases: cell-based
Assay [1] concerns the target T1, RNA polymerase II (Mus musculus) (UniProt P08775+Q8CFI7+P97760+A0A3Q4L2S8+Q80UW8+P61219+P62488+Q923G2+P60898+O08740+Q63871+P62876). Put plainly: Inhibition of RNA polymerase II in mouse B16-F1 migrating cells assessed as fold change in Pik3ca-RNA stability at 0.1 mM measured by ChIP-seq analysis relative to control cells.
Assay [2] deals with T1, RNA polymerase II (Mus musculus). Put plainly: Inhibition of RNA polymerase II in mouse B16-F1 migrating cells assessed as fold change in Eif1b-RNA stability at 0.1 mM measured by ChIP-seq analysis relative to control cells.
For assay [3] the target is unchanged. Put plainly: Inhibition of RNA polymerase II in mouse B16-F1 migrating cells assessed as fold change in Gpsm3-RNA stability at 0.1 mM measured by ChIP-seq analysis relative to control cells.
The target is the same in assay [4]. Put plainly: Inhibition of RNA polymerase II in mouse B16-F1 migrating cells assessed as fold change in Dtnbp1-RNA stability at 0.1 mM measured by ChIP-seq analysis relative to control cells.
Assay [5] has the same target. Briefly: Inhibition of RNA polymerase II in mouse B16-F1 migrating cells assessed as fold change in Casp8ap2-RNA stability at 0.1 mM measured by ChIP-seq analysis relative to control cells.
Assay [6] has the same target. Put plainly: Inhibition of RNA polymerase II in mouse B16-F1 migrating cells assessed as fold change in Mphosph8-RNA stability at 0.1 mM measured by ChIP-seq analysis relative to control cells.
For assay [7] the target is unchanged. Briefly: Inhibition of RNA polymerase II in mouse B16-F1 migrating cells assessed as fold change in Sppl2a-RNA stability at 0.1 mM measured by ChIP-seq analysis relative to control cells.
The target is the same in assay [8]. Briefly: Inhibition of RNA polymerase II in mouse B16-F1 migrating cells assessed as fold change in Myef2-RNA stability at 0.1 mM measured by ChIP-seq analysis relative to control cells.
The target is the same in assay [9]. Briefly: Inhibition of RNA polymerase II in mouse B16-F1 migrating cells assessed as fold change in Bnip3-RNA stability at 0.1 mM measured by ChIP-seq analysis relative to control cells.
The target is the same in assay [10]. Put plainly: Inhibition of RNA polymerase II in mouse B16-F1 migrating cells assessed as fold change in Mzt1-RNA stability at 0.1 mM measured by ChIP-seq analysis relative to control cells.
Assay [11] has the same target. Briefly: Inhibition of RNA polymerase II in mouse B16-F1 migrating cells assessed as fold change in Obsl1-RNA stability at 0.1 mM measured by ChIP-seq analysis relative to control cells.
Assay [12] has the same target. Briefly: Inhibition of RNA polymerase II in mouse B16-F1 migrating cells assessed as fold change in Nin-RNA stability at 0.1 mM measured by ChIP-seq analysis relative to control cells.
The target is the same in assay [13]. Put plainly: Inhibition of RNA polymerase II in mouse B16-F1 migrating cells assessed as fold change in Med29-RNA stability at 0.1 mM measured by ChIP-seq analysis relative to control cells.
For assay [14] the target is unchanged. Briefly: Inhibition of RNA polymerase II in mouse B16-F1 migrating cells assessed as fold change in Cbfa2t2-RNA stability at 0.1 mM measured by ChIP-seq analysis relative to control cells.
Assay [15] has the same target. Briefly: Inhibition of RNA polymerase II in mouse B16-F1 migrating cells assessed as fold change in Hmgb1-RNA stability at 0.1 mM measured by ChIP-seq analysis relative to control cells.
The target is the same in assay [16]. Put plainly: Inhibition of RNA polymerase II in mouse B16-F1 migrating cells assessed as fold change in Atp13a2-RNA stability at 0.1 mM measured by ChIP-seq analysis relative to control cells.
For assay [17] the target is unchanged. Briefly: Inhibition of RNA polymerase II in mouse B16-F1 migrating cells assessed as fold change in Atxn10-RNA stability at 0.1 mM measured by ChIP-seq analysis relative to control cells.
Assay [18] addresses Histone-lysine N-methyltransferase EZH2 (Mus musculus) (UniProt Q61188). Briefly: Inhibition of EZH2 in mouse B16-F1 migrating cells assessed as fold change in H3K27me3-buffered regulated Gla-mRNA expression at 3 uM measured by ChIP-seq analysis relative to control cells.
Assay [19] has the same target. Put plainly: Inhibition of EZH2 in mouse B16-F1 migrating cells assessed as fold change in H3K27me3-buffered regulated L3mbtl3-mRNA expression at 3 uM measured by ChIP-seq analysis relative to control cells.
The target is the same in assay [20]. Put plainly: Inhibition of EZH2 in mouse B16-F1 migrating cells assessed as fold change in H3K27me3-buffered regulated Dlk2-mRNA expression at 3 uM measured by ChIP-seq analysis relative to control cells.
The target is the same in assay [21]. Briefly: Inhibition of EZH2 in mouse B16-F1 migrating cells assessed as fold change in H3K27me3-buffered regulated Jmjd1c-mRNA expression at 3 uM measured by ChIP-seq analysis relative to control cells.
Assay [22] has the same target. Briefly: Inhibition of EZH2 in mouse B16-F1 migrating cells assessed as fold change in H3K27me3-buffered regulated Ahdc1-mRNA expression at 3 uM measured by ChIP-seq analysis relative to control cells.
Assay [23] has the same target. Briefly: Inhibition of EZH2 in mouse B16-F1 migrating cells assessed as fold change in H3K27me3-buffered regulated Mettl17-mRNA expression at 3 uM measured by ChIP-seq analysis relative to control cells.
For assay [24] the target is unchanged. Put plainly: Inhibition of EZH2 in mouse B16-F1 migrating cells assessed as fold change in H3K27me3-buffered regulated Col15a1-mRNA expression at 3 uM measured by ChIP-seq analysis relative to control cells.
For assay [25] the target is unchanged. Briefly: Inhibition of EZH2 in mouse B16-F1 migrating cells assessed as fold change in H3K27me3-buffered regulated Dlc1-mRNA expression at 3 uM measured by ChIP-seq analysis relative to control cells.
Assay [26] has the same target. Briefly: Inhibition of EZH2 in mouse B16-F1 migrating cells assessed as fold change in H3K27me3-buffered regulated Tns3-mRNA expression at 3 uM measured by ChIP-seq analysis relative to control cells.
Assay [27] shares this target. Briefly: Inhibition of EZH2 in mouse B16-F1 migrating cells assessed as fold change in H3K27me3-buffered regulated Ube2j1-mRNA expression at 3 uM measured by ChIP-seq analysis relative to control cells.
Assay [28] shares this target. Put plainly: Inhibition of EZH2 in mouse B16-F1 migrating cells assessed as fold change in H3K27me3-independent regulated Hk2-mRNA expression at 3 uM measured by ChIP-seq analysis relative to control cells.
The target is the same in assay [29]. Put plainly: Inhibition of EZH2 in mouse B16-F1 migrating cells assessed as fold change in H3K27me3-independent regulated Gbe1-mRNA expression at 3 uM measured by ChIP-seq analysis relative to control cells.
Assay [30] shares this target. Put plainly: Inhibition of EZH2 in mouse B16-F1 migrating cells assessed as fold change in H3K27me3-buffered regulated Rsrc2-mRNA expression at 3 uM measured by ChIP-seq analysis relative to control cells.

Structures are written as SMILES. This continues a long series; more values of the same kind are listed elsewhere.

For the compound `OC[C@H]1O[C@@H](n2cnc3cc(Cl)c(Cl)cc32)[C@H](O)[C@@H]1O`, the log2FC was -0.46 in assay [1]; 0.54 in assay [2]; 0.6 in assay [3]; 0.43 in assay [4]; -0.81 in [5]; -1.17 in assay [6]. Also, the log2FC in assay [7] is -0.51; in assay [8], -0.65; in assay [9], 0.95; in assay [10], -0.49; in assay [11] it was 0.5; in assay [12], -0.59. For the same compound, the log2FC in [13] was 0.45; in [14], -0.5; in assay [15], -0.48; in assay [16], 0.4; in assay [17], 0.4.

For the compound `CCCc1cc(C)[nH]c(=O)c1CNC(=O)c1cc(-c2ccnc(N3CCN(C)CC3)c2)cc2c1cnn2C(C)C`, the log2FC is 0.42 in assay [18]; -0.4 in assay [19]; -0.86 in assay [20]; -0.43 in assay [21]; -0.71 in assay [22]; -0.5 in assay [23]. Further, the log2FC is -0.8 in assay [24]; -0.57 in [25]; -0.4 in assay [26]; 0.51 in assay [27]; -1.01 in assay [28]; 0.6 in assay [29]. For the same compound, the log2FC in assay [30] is -0.53.
